Experimental data: PubChem BioAssay AID504764 (Drosophila RNAi Screening Center, 2011)

- Screen: 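Genome-wide screen for regulators of Notch-driven gene expression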 (primary screen)
- Cells: Drosophila Kc167 cells
- Knock-down reagent: long dsRNA against Drosophila genes
- Time to read-out: about 5 days (4 days dsRNA, then 24 h after transfection)
- Treatment: transfection of constitutively active membrane-tethered Notch lacking the extracellular domain, read 24 h later
- Measured: 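Firefly luciferase from an E(spl)m3 reporter with active Notch, plus control-promoter and uninduced reporter wells for normalisation; unnormalised counts, duplicate wells a and b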
- Direction: induced reporter light, run 1, well a and induced reporter light, run 1, well b: higher = more light from the Notch target reporter with active Notch; control promoter light, run 1, well a and control promoter light, run 1, well b: higher = more light from the viral control promoter (cell number, transfection, viability); uninduced reporter light, run 1, well a: higher = more light from the Notch target reporter without active Notch
- Active means: 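Hit if the duplicate-averaged log2 ratio of induced to control-promoter light gives a plate-wise z beyond ±2, or induced to uninduced beyond ±1.8; weak-control or discordant-duplicate wells dropped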
- Meaning of the calls: active = modifier hit (raised or lowered Notch signal); inactive = not a hit
The deposit covers about 22,000 reagents; below is an unselected part of those that have a named target and a result. Of all reagents, 403 (1.9%) are marked active. 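Unnormalised raw counts per well; ratio z-scores behind the hit calls and whether each hit raises or lowers signal are not deposited.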 Reagents against one gene are numbered here. The record does not give: the amount of reagent.

{"gene": "CG4119", "reagent": 1, "induced reporter light, run 1, well a": 1.47e5, "induced reporter light, run 1, well b": 1.07e5, "control promoter light, run 1, well a": 1.63e5, "control promoter light, run 1, well b": 1.69e5, "uninduced reporter light, run 1, well a": 9810, "outcome": "inactive"}
{"gene": "CG15625", "reagent": 1, "induced reporter light, run 1, well a": 72530, "induced reporter light, run 1, well b": 69285, "control promoter light, run 1, well a": 73695, "control promoter light, run 1, well b": 58490, "uninduced reporter light, run 1, well a": 4165, "outcome": "inactive"}
{"gene": "Apt1 (Acyl-protein thioesterase 1)", "reagent": 1, "induced reporter light, run 1, well a": 1.48e5, "induced reporter light, run 1, well b": 1.40e5, "control promoter light, run 1, well a": 1.54e5, "control promoter light, run 1, well b": 1.27e5, "uninduced reporter light, run 1, well a": 7105, "outcome": "inactive"}
{"gene": "CG10710", "reagent": 1, "induced reporter light, run 1, well a": 1.49e5, "induced reporter light, run 1, well b": 1.06e5, "control promoter light, run 1, well a": 1.94e5, "control promoter light, run 1, well b": 1.13e5, "uninduced reporter light, run 1, well a": 5700, "outcome": "inactive"}
{"gene": "Mal-A7 (Maltase A7)", "reagent": 1, "induced reporter light, run 1, well a": 1.92e5, "induced reporter light, run 1, well b": 2.01e5, "control promoter light, run 1, well a": 2.18e5, "control promoter light, run 1, well b": 2.24e5, "uninduced reporter light, run 1, well a": 17115, "outcome": "inactive"}

Quoted from the listing, 2 entries:
{"gene": "Apt1 (Acyl-protein thioesterase 1)", "reagent": 1, "induced reporter light, run 1, well a": 1.48e5, "induced reporter light, run 1, well b": 1.40e5, "control promoter light, run 1, well a": 1.54e5, "control promoter light, run 1, well b": 1.27e5, "uninduced reporter light, run 1, well a": 7105, "outcome": "inactive"}
{"gene": "CG10710", "reagent": 1, "induced reporter light, run 1, well a": 1.49e5, "induced reporter light, run 1, well b": 1.06e5, "control promoter light, run 1, well a": 1.94e5, "control promoter light, run 1, well b": 1.13e5, "uninduced reporter light, run 1, well a": 5700, "outcome": "inactive"}

More reagents:
{"gene": "gwl (greatwall)", "reagent": 1, "induced reporter light, run 1, well a": 2.08e5, "induced reporter light, run 1, well b": 2.04e5, "control promoter light, run 1, well a": 3.08e5, "control promoter light, run 1, well b": 3.54e5, "uninduced reporter light, run 1, well a": 13990, "outcome": "inactive"}
{"gene": "CG32486", "reagent": 1, "induced reporter light, run 1, well a": 70330, "induced reporter light, run 1, well b": 93975, "control promoter light, run 1, well a": 68410, "control promoter light, run 1, well b": 22800, "uninduced reporter light, run 1, well a": 14095, "outcome": "inactive"}
{"gene": "CG32486", "reagent": 2, "induced reporter light, run 1, well a": 1.58e5, "induced reporter light, run 1, well b": 1.18e5, "control promoter light, run 1, well a": 2.35e5, "control promoter light, run 1, well b": 1.63e5, "uninduced reporter light, run 1, well a": 7450, "outcome": "inactive"}
{"gene": "SKIP (Shal K[+] channel interacting protein)", "reagent": 1, "induced reporter light, run 1, well a": 1.97e5, "induced reporter light, run 1, well b": 1.41e5, "control promoter light, run 1, well a": 1.93e5, "control promoter light, run 1, well b": 2.17e5, "uninduced reporter light, run 1, well a": 13860, "outcome": "inactive"}
{"gene": "SKIP (Shal K[+] channel interacting protein)", "reagent": 2, "induced reporter light, run 1, well a": 1.66e5, "induced reporter light, run 1, well b": 1.63e5, "control promoter light, run 1, well a": 2.05e5, "control promoter light, run 1, well b": 1.86e5, "uninduced reporter light, run 1, well a": 10740, "outcome": "inactive"}
{"gene": "SKIP (Shal K[+] channel interacting protein)", "reagent": 3, "induced reporter light, run 1, well a": 1.77e5, "induced reporter light, run 1, well b": 1.57e5, "control promoter light, run 1, well a": 1.35e5, "control promoter light, run 1, well b": 1.64e5, "uninduced reporter light, run 1, well a": 11132, "outcome": "inactive"}
{"gene": "SKIP (Shal K[+] channel interacting protein)", "reagent": 4, "induced reporter light, run 1, well a": 88675, "induced reporter light, run 1, well b": 93030, "control promoter light, run 1, well a": 1.20e5, "control promoter light, run 1, well b": 1.16e5, "uninduced reporter light, run 1, well a": 7540, "outcome": "inactive"}
{"gene": "SKIP (Shal K[+] channel interacting protein)", "reagent": 5, "induced reporter light, run 1, well a": 1.76e5, "induced reporter light, run 1, well b": 1.59e5, "control promoter light, run 1, well a": 1.63e5, "control promoter light, run 1, well b": 1.42e5, "uninduced reporter light, run 1, well a": 12405, "outcome": "inactive"}
